Data as given in the supplement of paper PMC10060354, “Discovery of a small molecule ligand of FRS2 that inhibits invasion and tumor growth” (Cellular Oncology, 2022).
Many values rest on one well or one pass, so single values are uncertain.

Protein sequences, listed by entry. Tags and fused reporters are not part of them. Lines headed by an entry give the natural chain unless they say otherwise; changes in a name come on top.
UniProt Q6L8Q7: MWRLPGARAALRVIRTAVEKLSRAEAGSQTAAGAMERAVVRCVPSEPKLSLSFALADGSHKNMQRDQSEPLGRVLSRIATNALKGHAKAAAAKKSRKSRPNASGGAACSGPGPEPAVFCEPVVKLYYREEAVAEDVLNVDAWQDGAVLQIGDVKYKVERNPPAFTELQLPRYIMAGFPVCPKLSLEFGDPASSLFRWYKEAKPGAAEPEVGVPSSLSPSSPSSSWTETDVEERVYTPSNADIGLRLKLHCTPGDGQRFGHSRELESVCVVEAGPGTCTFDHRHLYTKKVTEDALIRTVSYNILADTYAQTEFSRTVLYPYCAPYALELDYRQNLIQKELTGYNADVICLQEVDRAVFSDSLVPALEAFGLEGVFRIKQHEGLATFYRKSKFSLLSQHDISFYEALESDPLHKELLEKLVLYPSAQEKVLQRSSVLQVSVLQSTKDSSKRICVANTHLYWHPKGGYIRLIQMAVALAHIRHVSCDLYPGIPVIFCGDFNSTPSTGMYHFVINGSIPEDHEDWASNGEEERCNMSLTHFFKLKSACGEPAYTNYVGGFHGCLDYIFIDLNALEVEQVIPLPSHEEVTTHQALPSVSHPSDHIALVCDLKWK
UniProt O60825: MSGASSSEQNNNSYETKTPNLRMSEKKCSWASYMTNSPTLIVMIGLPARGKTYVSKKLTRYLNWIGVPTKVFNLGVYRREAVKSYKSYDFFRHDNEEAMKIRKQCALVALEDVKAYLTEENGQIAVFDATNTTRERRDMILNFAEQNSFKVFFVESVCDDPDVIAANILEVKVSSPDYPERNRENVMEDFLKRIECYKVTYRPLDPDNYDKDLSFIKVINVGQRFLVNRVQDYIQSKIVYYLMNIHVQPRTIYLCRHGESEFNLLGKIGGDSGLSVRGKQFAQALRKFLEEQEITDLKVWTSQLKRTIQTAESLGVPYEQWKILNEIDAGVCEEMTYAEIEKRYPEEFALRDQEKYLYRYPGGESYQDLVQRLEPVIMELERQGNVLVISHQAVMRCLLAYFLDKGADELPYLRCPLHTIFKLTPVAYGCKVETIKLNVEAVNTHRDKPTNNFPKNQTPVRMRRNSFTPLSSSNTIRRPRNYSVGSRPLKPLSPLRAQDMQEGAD
UniProt Q13509, whole entry: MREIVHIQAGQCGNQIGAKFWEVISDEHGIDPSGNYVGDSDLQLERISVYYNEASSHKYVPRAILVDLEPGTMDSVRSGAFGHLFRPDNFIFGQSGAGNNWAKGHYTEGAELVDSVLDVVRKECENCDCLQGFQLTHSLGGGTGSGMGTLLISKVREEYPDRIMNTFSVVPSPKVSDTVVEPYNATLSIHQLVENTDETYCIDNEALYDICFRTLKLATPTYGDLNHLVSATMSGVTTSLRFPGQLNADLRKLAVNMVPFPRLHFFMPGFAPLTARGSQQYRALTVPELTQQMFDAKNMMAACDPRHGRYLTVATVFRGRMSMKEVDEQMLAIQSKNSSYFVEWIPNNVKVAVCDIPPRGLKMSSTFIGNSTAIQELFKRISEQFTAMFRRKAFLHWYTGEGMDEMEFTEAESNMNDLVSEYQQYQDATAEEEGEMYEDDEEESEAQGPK
UniProt P38432, whole entry: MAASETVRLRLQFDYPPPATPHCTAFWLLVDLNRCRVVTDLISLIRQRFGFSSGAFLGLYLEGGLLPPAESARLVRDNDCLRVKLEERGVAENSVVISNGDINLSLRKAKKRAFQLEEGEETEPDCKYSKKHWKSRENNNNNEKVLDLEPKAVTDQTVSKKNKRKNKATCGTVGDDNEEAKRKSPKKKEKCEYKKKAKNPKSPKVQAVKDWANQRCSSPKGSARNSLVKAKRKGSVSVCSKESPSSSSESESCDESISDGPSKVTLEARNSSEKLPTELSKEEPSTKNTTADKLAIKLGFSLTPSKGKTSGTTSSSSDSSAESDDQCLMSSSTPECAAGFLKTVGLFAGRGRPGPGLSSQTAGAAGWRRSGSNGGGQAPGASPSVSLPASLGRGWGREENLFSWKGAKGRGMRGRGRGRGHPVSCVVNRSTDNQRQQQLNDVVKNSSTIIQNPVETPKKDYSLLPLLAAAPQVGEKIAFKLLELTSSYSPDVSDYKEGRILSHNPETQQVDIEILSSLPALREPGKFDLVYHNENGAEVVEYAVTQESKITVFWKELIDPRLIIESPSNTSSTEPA
UniProt Q5SRE5: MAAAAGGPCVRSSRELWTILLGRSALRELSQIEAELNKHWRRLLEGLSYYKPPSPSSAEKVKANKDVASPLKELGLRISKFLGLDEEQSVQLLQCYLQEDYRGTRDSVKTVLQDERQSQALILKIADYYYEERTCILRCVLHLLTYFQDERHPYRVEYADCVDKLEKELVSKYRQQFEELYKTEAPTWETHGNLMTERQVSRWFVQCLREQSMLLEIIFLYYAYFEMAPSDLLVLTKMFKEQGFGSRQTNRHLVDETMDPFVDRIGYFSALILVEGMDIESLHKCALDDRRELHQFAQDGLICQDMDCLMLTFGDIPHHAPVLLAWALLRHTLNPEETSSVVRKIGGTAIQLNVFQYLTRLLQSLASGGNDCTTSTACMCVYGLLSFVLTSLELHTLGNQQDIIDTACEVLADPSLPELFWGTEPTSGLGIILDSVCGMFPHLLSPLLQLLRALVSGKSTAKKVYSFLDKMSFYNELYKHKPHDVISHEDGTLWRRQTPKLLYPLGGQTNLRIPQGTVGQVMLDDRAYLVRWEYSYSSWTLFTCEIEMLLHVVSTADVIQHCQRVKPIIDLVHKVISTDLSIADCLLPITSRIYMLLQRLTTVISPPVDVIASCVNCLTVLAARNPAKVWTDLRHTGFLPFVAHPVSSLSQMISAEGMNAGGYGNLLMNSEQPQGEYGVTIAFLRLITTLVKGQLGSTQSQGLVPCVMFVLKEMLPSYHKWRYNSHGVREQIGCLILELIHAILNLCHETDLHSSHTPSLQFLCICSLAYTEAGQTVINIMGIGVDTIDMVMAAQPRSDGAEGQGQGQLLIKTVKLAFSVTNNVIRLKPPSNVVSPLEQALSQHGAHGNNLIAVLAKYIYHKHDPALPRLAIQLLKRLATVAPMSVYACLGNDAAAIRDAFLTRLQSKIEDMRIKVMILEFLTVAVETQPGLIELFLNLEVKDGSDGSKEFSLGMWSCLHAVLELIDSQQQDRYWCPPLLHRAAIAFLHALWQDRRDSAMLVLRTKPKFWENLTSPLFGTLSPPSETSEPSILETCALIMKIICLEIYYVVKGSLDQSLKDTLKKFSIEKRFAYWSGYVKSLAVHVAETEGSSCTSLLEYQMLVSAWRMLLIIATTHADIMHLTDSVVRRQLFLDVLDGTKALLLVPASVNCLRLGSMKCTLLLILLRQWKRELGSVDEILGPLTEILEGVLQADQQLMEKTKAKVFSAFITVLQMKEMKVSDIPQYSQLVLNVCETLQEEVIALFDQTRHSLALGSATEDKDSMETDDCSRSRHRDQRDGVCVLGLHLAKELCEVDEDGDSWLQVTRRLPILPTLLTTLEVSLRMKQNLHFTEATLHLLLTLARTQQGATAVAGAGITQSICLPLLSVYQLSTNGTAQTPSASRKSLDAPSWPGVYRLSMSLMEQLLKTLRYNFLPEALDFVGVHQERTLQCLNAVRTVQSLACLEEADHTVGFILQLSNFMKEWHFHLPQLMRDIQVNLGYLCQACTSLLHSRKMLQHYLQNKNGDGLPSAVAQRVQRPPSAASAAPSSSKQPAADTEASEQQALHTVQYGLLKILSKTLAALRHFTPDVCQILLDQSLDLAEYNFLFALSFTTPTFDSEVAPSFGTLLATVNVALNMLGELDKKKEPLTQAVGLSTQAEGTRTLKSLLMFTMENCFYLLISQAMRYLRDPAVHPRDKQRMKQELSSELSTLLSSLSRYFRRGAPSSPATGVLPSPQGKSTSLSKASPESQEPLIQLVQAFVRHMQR
UniProt Q00577: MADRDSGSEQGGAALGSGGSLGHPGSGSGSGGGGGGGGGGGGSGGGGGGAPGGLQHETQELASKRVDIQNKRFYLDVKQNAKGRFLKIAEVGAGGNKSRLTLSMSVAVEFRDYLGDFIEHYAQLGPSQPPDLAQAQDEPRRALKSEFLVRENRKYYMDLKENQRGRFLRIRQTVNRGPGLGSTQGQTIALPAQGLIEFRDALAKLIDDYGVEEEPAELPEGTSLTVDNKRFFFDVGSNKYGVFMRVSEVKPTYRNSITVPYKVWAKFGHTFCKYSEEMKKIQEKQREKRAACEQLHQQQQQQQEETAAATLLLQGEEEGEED
UniProt P23497: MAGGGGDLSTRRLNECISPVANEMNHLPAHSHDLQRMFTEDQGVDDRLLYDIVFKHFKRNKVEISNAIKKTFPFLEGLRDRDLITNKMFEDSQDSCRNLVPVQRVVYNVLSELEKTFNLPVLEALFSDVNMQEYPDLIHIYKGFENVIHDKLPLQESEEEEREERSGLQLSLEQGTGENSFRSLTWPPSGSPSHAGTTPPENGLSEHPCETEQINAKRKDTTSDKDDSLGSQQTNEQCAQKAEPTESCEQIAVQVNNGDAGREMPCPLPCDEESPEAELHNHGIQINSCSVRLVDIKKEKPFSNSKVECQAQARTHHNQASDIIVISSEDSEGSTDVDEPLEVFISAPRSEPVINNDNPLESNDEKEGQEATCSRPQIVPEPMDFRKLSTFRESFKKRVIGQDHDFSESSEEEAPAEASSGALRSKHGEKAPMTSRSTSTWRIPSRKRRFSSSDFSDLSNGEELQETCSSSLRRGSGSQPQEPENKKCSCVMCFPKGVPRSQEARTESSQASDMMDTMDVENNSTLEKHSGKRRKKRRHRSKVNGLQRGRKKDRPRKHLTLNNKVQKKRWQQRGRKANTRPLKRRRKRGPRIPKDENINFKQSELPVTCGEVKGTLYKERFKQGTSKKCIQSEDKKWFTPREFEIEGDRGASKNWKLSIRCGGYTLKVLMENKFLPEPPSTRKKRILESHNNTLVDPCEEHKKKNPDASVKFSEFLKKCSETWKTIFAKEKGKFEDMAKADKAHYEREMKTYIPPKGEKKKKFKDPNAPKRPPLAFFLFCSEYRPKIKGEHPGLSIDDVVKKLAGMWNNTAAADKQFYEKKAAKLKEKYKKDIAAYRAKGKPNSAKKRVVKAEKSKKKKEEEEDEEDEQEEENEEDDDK
UniProt Q8NHV4, whole entry: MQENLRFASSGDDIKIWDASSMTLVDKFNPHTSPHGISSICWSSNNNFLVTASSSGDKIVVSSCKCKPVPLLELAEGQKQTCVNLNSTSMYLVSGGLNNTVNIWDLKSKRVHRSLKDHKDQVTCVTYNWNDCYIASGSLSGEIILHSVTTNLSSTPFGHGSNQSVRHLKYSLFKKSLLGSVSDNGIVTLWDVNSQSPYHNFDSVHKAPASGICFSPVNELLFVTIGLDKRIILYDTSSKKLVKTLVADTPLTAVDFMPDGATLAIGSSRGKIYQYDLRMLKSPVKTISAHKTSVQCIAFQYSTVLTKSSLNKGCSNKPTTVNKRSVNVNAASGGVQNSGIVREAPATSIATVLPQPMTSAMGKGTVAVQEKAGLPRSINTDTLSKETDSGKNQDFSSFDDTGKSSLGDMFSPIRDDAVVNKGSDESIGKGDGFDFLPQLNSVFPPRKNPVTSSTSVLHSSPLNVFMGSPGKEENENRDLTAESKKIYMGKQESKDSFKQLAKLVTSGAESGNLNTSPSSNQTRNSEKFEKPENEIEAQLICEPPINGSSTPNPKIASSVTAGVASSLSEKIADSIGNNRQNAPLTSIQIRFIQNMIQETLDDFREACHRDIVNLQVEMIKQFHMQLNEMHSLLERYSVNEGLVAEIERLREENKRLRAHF
UniProt P55039: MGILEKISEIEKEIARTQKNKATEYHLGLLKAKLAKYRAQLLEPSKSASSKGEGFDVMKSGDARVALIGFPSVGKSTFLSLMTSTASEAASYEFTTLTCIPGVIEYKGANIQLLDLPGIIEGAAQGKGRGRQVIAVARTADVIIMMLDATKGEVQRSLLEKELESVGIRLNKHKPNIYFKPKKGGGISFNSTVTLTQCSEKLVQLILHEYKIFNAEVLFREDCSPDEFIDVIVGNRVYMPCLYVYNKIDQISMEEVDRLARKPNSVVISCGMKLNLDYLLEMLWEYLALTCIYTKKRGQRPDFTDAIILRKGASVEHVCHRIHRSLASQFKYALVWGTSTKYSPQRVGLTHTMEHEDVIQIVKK
UniProt Q9Y6M9, whole entry: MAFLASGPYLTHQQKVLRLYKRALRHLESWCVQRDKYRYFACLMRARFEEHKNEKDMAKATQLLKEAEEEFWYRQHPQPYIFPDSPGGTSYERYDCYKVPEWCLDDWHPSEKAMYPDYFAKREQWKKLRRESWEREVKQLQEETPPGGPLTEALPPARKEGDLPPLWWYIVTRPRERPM
UniProt P24385, whole entry: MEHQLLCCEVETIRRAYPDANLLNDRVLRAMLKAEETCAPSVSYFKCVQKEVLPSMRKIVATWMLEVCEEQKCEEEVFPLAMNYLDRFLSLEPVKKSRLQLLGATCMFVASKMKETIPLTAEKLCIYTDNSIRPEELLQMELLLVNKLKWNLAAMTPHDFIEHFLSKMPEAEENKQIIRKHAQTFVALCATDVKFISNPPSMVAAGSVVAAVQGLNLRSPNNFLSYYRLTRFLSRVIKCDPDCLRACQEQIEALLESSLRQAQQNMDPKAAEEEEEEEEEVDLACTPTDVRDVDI

Compound: [O-][N+](C(C1=C(C(O)=C2)NC(C(C=C3)=CC=C3Cl)C4C1C=CC4)=C2Cl)=O
Experiment: melting temperature shift (compound 7 minus DMSO); higher = compound stabilises the protein
Conditions: 10 µM
Protocol: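 Thermal proteome profiling (TMT mass spectrometry) in intact DAOY medulloblastoma cells or DAOY lysates treated with 10 µM compound 7 or DMSO, heated at 10 temperatures from 40.5 to 73.8 °C for 3 min. Melting curves were fitted with the Bioconductor TPP package, and the melting point difference between compound and vehicle is reported per protein (single curve per condition).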

[1] = system: DAOY cell lysate, treatment time: 20 min, 4 °C
[2] = system: intact DAOY cells, treatment time: 90 min, 37 °C

Target FAF2 (UniProt Q96CS3) has a melting temperature shift [1] of 0.931 °C and a melting temperature shift [2] of -0.574 °C.

Work on MRPL45 (UniProt Q9BRJ2) yielded a melting temperature shift [1] of -0.191 °C and a melting temperature shift [2] of -0.215 °C.

Work on PARP2 (UniProt Q9UGN5) yielded a melting temperature shift [1] of -0.983 °C.

With RIN1 (UniProt Q13671) the melting temperature shift [1] was -0.284 °C and the melting temperature shift [2] was -1.31 °C.

For GNS (UniProt P15586), the melting temperature shift [1] was -0.773 °C and the melting temperature shift [2] was -1.48 °C.

PDE12 (UniProt Q6L8Q7) showed a melting temperature shift [1] of -0.621 °C and a melting temperature shift [2] of 0.364 °C.

HMGB3 (UniProt O15347) showed a melting temperature shift [1] of -1.75 °C.

For PFKFB2 (UniProt O60825), the melting temperature shift [2] was -1.52 °C.

ANP32B (UniProt Q92688) gave a melting temperature shift [1] of -0.318 °C and a melting temperature shift [2] of 0.277 °C.

With TBC1D10B (UniProt Q4KMP7) the melting temperature shift [1] was 2.06 °C and the melting temperature shift [2] was -2.22 °C.

Work on HNRNPA3 (UniProt P51991) yielded a melting temperature shift [1] of 1.5 °C and a melting temperature shift [2] of -0.751 °C.

For EIF3M (UniProt Q7L2H7), the melting temperature shift [1] was -0.33 °C and the melting temperature shift [2] was 0.148 °C.

UniProt Q14123 gave a melting temperature shift [1] of -0.616 °C and a melting temperature shift [2] of -0.665 °C.

With CAB39 (UniProt Q9Y376) the melting temperature shift [1] was -1.26 °C and the melting temperature shift [2] was -0.981 °C.

UniProt P02751 was tested, and the melting temperature shift [1] was 1.45 °C and the melting temperature shift [2] was -0.169 °C.

RPL32 (UniProt P62910) showed a melting temperature shift [1] of 0.737 °C and a melting temperature shift [2] of -0.688 °C.

For UniProt P29034, the melting temperature shift [1] was -2.44 °C and the melting temperature shift [2] was 9.29 °C.

Work on UniProt Q9P0S2 yielded a melting temperature shift [1] of -0.188 °C and a melting temperature shift [2] of -0.372 °C.

G3BP2 (UniProt Q9UN86) was tested, and the melting temperature shift [1] was 0.382 °C and the melting temperature shift [2] was -0.568 °C.

TUBB3 (UniProt Q13509) gave a melting temperature shift [1] of 0.259 °C and a melting temperature shift [2] of 0.0751 °C.

EXOG (UniProt Q9Y2C4) gave a melting temperature shift [1] of 3.69 °C and a melting temperature shift [2] of -1.57 °C.

For KLC2 (UniProt Q9H0B6), the melting temperature shift [1] was 0.0743 °C and the melting temperature shift [2] was -0.349 °C.

In the case of MRPS18A (UniProt Q9NVS2), the melting temperature shift [1] is reported as 1.69 °C and the melting temperature shift [2] is reported as -0.324 °C.

NDOR1 (UniProt Q9UHB4) was tested, and the melting temperature shift [2] was -1.07 °C.

VPS13C (UniProt Q709C8) showed a melting temperature shift [1] of -0.782 °C and a melting temperature shift [2] of -0.48 °C.

Work on RABL3 (UniProt Q5HYI8) yielded a melting temperature shift [1] of 0.736 °C and a melting temperature shift [2] of -1.66 °C.

Target UniProt P23141 has a melting temperature shift [1] of 0.208 °C and a melting temperature shift [2] of 3.15 °C.

Target MAD1L1 (UniProt Q9Y6D9) has a melting temperature shift [1] of -1.06 °C and a melting temperature shift [2] of 0.0257 °C.

Target STAT5A (UniProt P42229) has a melting temperature shift [1] of -0.55 °C and a melting temperature shift [2] of -0.512 °C.

ADAT3 (UniProt Q96EY9) showed a melting temperature shift [1] of 0.632 °C.

CAPN7 (UniProt Q9Y6W3) was tested, and the melting temperature shift [1] was -1.13 °C and the melting temperature shift [2] was 1.13 °C.

MBD3 (UniProt O95983) was tested, and the melting temperature shift [1] was -0.352 °C and the melting temperature shift [2] was -0.705 °C.

For UniProt Q8NG11, the melting temperature shift [1] was 2.03 °C and the melting temperature shift [2] was -2.84 °C.

With UniProt O75317 the melting temperature shift [2] was 0.652 °C.

RPL34 (UniProt P49207) gave a melting temperature shift [1] of 1.29 °C and a melting temperature shift [2] of -0.5 °C.

MLEC (UniProt Q14165) was tested, and the melting temperature shift [1] was 1.12 °C and the melting temperature shift [2] was 0.454 °C.

For UniProt Q13227, the melting temperature shift [1] was 0.178 °C and the melting temperature shift [2] was -2.21 °C.

CAPNS1 (UniProt P04632) was tested, and the melting temperature shift [1] was -1.31 °C and the melting temperature shift [2] was 0.756 °C.

With PEPD (UniProt P12955) the melting temperature shift [1] was -0.164 °C and the melting temperature shift [2] was -0.238 °C.

With ERLIN1 (UniProt O75477) the melting temperature shift [1] was 2.41 °C and the melting temperature shift [2] was -0.00282 °C.

Target NAPRT (UniProt Q6XQN6) has a melting temperature shift [1] of -1.03 °C and a melting temperature shift [2] of -2.77 °C.

Target ERCC5 (UniProt P28715) has a melting temperature shift [1] of 2.28 °C and a melting temperature shift [2] of 1.98 °C.

In the case of UniProt Q9BQ48, the melting temperature shift [2] is reported as -2.03 °C.

With UniProt Q14938 the melting temperature shift [2] was -1.78 °C.

Target UniProt Q8N442 has a melting temperature shift [1] of -0.108 °C.

UniProt Q96T23 was tested, and the melting temperature shift [1] was 1.79 °C and the melting temperature shift [2] was -0.138 °C.

UniProt Q8N3V7 gave a melting temperature shift [2] of -2.4 °C.

Target TMX2 (UniProt Q9Y320) has a melting temperature shift [1] of 1.73 °C and a melting temperature shift [2] of -0.738 °C.

PDLIM7 (UniProt Q9NR12) gave a melting temperature shift [1] of -0.205 °C and a melting temperature shift [2] of -0.0136 °C.

UniProt Q9NXF1 gave a melting temperature shift [1] of -0.112 °C and a melting temperature shift [2] of 1.56 °C.

PHB2 (UniProt Q99623) was tested, and the melting temperature shift [1] was 2.69 °C and the melting temperature shift [2] was -0.807 °C.

With UniProt P38432 the melting temperature shift [1] was 0.0215 °C.

In the case of UniProt P16118, the melting temperature shift [2] is reported as 2.45 °C.

WDR5 (UniProt P61964) showed a melting temperature shift [1] of -0.0229 °C and a melting temperature shift [2] of 0.66 °C.

For UniProt Q12929, the melting temperature shift [1] was 0.988 °C and the melting temperature shift [2] was -0.932 °C.

GRHPR (UniProt Q9UBQ7) showed a melting temperature shift [1] of -0.109 °C and a melting temperature shift [2] of -0.757 °C.

NUP188 (UniProt Q5SRE5) gave a melting temperature shift [1] of -0.244 °C and a melting temperature shift [2] of -1.02 °C.

With PURA (UniProt Q00577) the melting temperature shift [1] was -1.74 °C and the melting temperature shift [2] was -0.265 °C.

In the case of UniProt Q8IW00, the melting temperature shift [2] is reported as -1.66 °C.

PYGL (UniProt P06737) gave a melting temperature shift [1] of -0.423 °C and a melting temperature shift [2] of 0.205 °C.

SQSTM1 (UniProt Q13501) was tested, and the melting temperature shift [1] was -0.203 °C and the melting temperature shift [2] was -0.681 °C.

Target SP100 (UniProt P23497) has a melting temperature shift [1] of 1.19 °C and a melting temperature shift [2] of -1.01 °C.

Target LPCAT1 (UniProt Q8NF37) has a melting temperature shift [1] of 0.851 °C and a melting temperature shift [2] of -1.29 °C.

For NEDD1 (UniProt Q8NHV4), the melting temperature shift [1] was -1.49 °C and the melting temperature shift [2] was 0.237 °C.

In the case of MBNL1 (UniProt Q9NR56), the melting temperature shift [1] is reported as -0.414 °C and the melting temperature shift [2] is reported as -0.601 °C.

OXSR1 (UniProt O95747) gave a melting temperature shift [1] of -1.01 °C and a melting temperature shift [2] of -1.47 °C.

With ALCAM (UniProt Q13740) the melting temperature shift [1] was 1.95 °C.

PAPOLG (UniProt Q9BWT3) gave a melting temperature shift [1] of 1.85 °C and a melting temperature shift [2] of -3.11 °C.

For TWF2 (UniProt Q6IBS0), the melting temperature shift [1] was -0.0299 °C and the melting temperature shift [2] was 0.881 °C.

With NDUFA8 (UniProt P51970) the melting temperature shift [1] was 2.46 °C and the melting temperature shift [2] was 0.117 °C.

With UniProt P34913 the melting temperature shift [1] was 5.89 °C and the melting temperature shift [2] was 0.812 °C.

For DRG2 (UniProt P55039), the melting temperature shift [1] was -0.162 °C and the melting temperature shift [2] was 0.492 °C.

Target NUDCD1 (UniProt Q96RS6) has a melting temperature shift [1] of -1 °C and a melting temperature shift [2] of 0.173 °C.

Work on IKBKAP (UniProt O95163) yielded a melting temperature shift [1] of -0.218 °C and a melting temperature shift [2] of 0.718 °C.

Target DHX15 (UniProt O43143) has a melting temperature shift [1] of -0.0443 °C and a melting temperature shift [2] of -0.201 °C.

UniProt Q86TX2 gave a melting temperature shift [1] of -1.43 °C and a melting temperature shift [2] of 1.74 °C.

NDUFB9 (UniProt Q9Y6M9) was tested, and the melting temperature shift [1] was 0.917 °C and the melting temperature shift [2] was 0.39 °C.

VRK1 (UniProt Q99986) gave a melting temperature shift [1] of -0.0702 °C and a melting temperature shift [2] of -0.493 °C.

With CCND1 (UniProt P24385) the melting temperature shift [2] was -1.09 °C.

Work on SRPK2 (UniProt P78362) yielded a melting temperature shift [1] of -0.158 °C and a melting temperature shift [2] of 0.00816 °C.

ABCF1 (UniProt Q8NE71) was tested, and the melting temperature shift [1] was -0.223 °C and the melting temperature shift [2] was -1.54 °C.
